The list is a part of this screen's results and no random one: it is rich in T/C values a quarter to a half above the control, in often repeated tests (any T/C) and in doses without a T/C. Other doses and runs of a compound stand elsewhere. T/C is the treated group as % of the vehicle group. Schedules are NCI's codes, taken here to give the interval after Q, in days (D) or hours (H), and the number of doses after X. Some T/C values are followed by the survivors on the day toxicity was checked, most often the fifth; where none is given, no animal had died by that day. Some doses have a count of surviving animals in place of a T/C: the source holds a T/C of zero for them, seemingly a mark for toxic or unscored doses. Counts of survivors are from the toxicity check (mostly the fifth day) where no day follows; animals may have died later. Some doses were run more than once; the values are given in rising order.

This assay relates to nude mice, HT29 intrarenal xenograft, tumor weight T/C. Description: NCI In Vivo Anticancer Drug Screen. Data for tumor model HT29;CX-1 Human Adenocarcinoma (MER+) (intrarenal inoculation) in NU/NU Swiss (nude) mice. Particulars: T/C endpoint: mean tumor weight change, higher T/C = larger tumour. The method, then: The antitumor activity of compounds was measured in mice bearing transplantable tumors. Survival or tumor size were measured and the results are expressed as the measurement made in the treated group (T) divided by the measurement made in the vehicle treated control group (C). The tumor model used in this assay is HT29;CX-1 Human Adenocarcinoma (MER+) (intrarenal inoculation) in NU/NU Swiss (nude) mice

Where [1] appears, read: dose: 1200.0 mg/kg/injection, schedule: Q04DX004 (sc), vehicle: Klucel (hydroxypropylcellulose) (HPC).
Where [2] appears, read: dose: 300.0 mg/kg/injection, schedule: Q04DX004 (sc), vehicle: saline with Tween-80.
Setting [3] is: dose: 600.0 mg/kg/injection, schedule: Q04DX004 (sc), vehicle: saline with Tween-80.
[4] abbreviates: dose: 400.0 mg/kg/injection, schedule: Q01DX010 (sc), vehicle: saline.

Turning to `Cc1c2cc(Cl)c3ccccc3c2c[n+]2ccccc12`, under “dose: 150.0 mg/kg/injection, schedule: Q04DX004 (sc), vehicle: saline with Tween-80, evaluated on day 15”, the T/C was 130 % of control.

In the case of `Cc1ccc(N)c(N)c1`, where the note is “dose: 1600.0 mg/kg/injection, schedule: Q04DX004 (sc), vehicle: saline with Tween-80”, the survivor count is given as 0 of 6 on day 15.

For `CCSC(=O)N1c2ccc(OC)cc2C=CC1C#N` (stereo not drawn), under “dose: 4800.0 mg/kg/injection, schedule: Q04DX004 (sc), vehicle: saline with Tween-80”, the survivor count is reported as 2 of 6 on day 15.

`C=CS(C=C)=NS(=O)(=O)c1ccc(C)cc1`: the T/C (dose: 75.0 mg/kg/injection, schedule: Q04DX004 (sc), vehicle: Klucel (hydroxypropylcellulose) (HPC), evaluated on day 15) is 138 % of control [4 of 6 alive on day 15]. Also, the survivor count (dose: 150.0 mg/kg/injection, schedule: Q04DX004 (sc), vehicle: Klucel (hydroxypropylcellulose) (HPC)) is recorded as 0 of 6 on day 15.

`C=Cc1cnc([N+](=O)[O-])n1C`: the survivor count (dose: 600.0 mg/kg/injection, schedule: Q04DX004 (sc), vehicle: Klucel (hydroxypropylcellulose) (HPC)) is 1 of 6 on day 15 and the survivor count under setting [1] was 0 of 6 on day 15.

On to `O=P1(N(CCCl)CCCl)NCCCO1` (stereo not drawn), for which the survivor count (dose: 50.0 mg/kg/injection, schedule: Q01DX010 (sc), vehicle: saline) is 0 of 3 on day 11; the survivor count (dose: 100.0 mg/kg/injection, schedule: Q01DX010 (sc), vehicle: saline) was 0 of 3 on day 11; the survivor count (dose: 200.0 mg/kg/injection, schedule: Q01DX010 (sc), vehicle: saline) is recorded as 0 of 3 on day 11.

Consider `O=C(O)CCCc1ccc(N(CCCl)CCCl)cc1`, for which the T/C (dose: 2.0 mg/kg/injection, schedule: Q01DX010 (sc), vehicle: saline with Tween-80, evaluated on day 11) is 147 % of control [2 of 2 alive on day 11]. Also, the survivor count (dose: 16.0 mg/kg/injection, schedule: Q01DX010 (sc), vehicle: saline with Tween-80) is 2 of 6 on day 11; the survivor count (dose: 32.0 mg/kg/injection, schedule: Q01DX010 (sc), vehicle: saline with Tween-80) is 0 of 6 on day 11 and 1 of 6 on day 11.

As to `CC1=CC(=Nc2ccc(N(CCCl)CCCl)cc2)C=C(C)C1=O`, the survivor count under setting [1] is on record as 3 of 6 on day 15.

With `CC(C)[C@](O)(C(=O)OCC1=CCN2CC[C@@H](O)[C@@H]12)[C@H](C)O`, the T/C (dose: 300.0 mg/kg/injection, schedule: Q04DX004 (sc), vehicle: water, evaluated on day 15) was 143 % of control; the T/C (dose: 600.0 mg/kg/injection, schedule: Q04DX004 (sc), vehicle: water, evaluated on day 15) was 149 % of control [5 of 6 alive on day 15]; the T/C (dose: 1200.0 mg/kg/injection, schedule: Q04DX004 (sc), vehicle: water, evaluated on day 15) is 137 % of control [4 of 6 alive on day 15]. Under “dose: 2400.0 mg/kg/injection, schedule: Q04DX004 (sc), vehicle: water”, the survivor count is reported as 1 of 6 on day 15.

As for `Cc1cc(N(CCOS(C)(=O)=O)CCOS(C)(=O)=O)ccc1C=Nc1ccc(-c2nc(Cc3ccccc3)sc2C)cc1`, under “dose: 400.0 mg/kg/injection, schedule: Q01DX010 (sc), vehicle: Klucel (hydroxypropylcellulose) (HPC)”, the survivor count is 1 of 3 on day 11.

With `O=C(Nc1ccccc1C(=O)O)c1cc([N+](=O)[O-])cc([N+](=O)[O-])c1`, the survivor count (dose: 400.0 mg/kg/injection, schedule: Q04DX004 (sc), vehicle: saline with Tween-80) is 1 of 6 on day 15.

Consider `NS(=O)(=O)OCCCCCCCOS(N)(=O)=O`, for which the survivor count (dose: 300.0 mg/kg/injection, schedule: Q04DX004 (ip), vehicle: saline with Tween-80) was 0 of 6 on day 15.

`C[CH2][Sn]([CH2]C)([CH2]C(=O)OC)[CH2]C(=O)OC`: where the note is “dose: 6.25 mg/kg/injection, schedule: Q04DX004 (sc), vehicle: saline with Tween-80, evaluated on day 15”, the T/C was 134 % of control. Also, the survivor count was 2 of 6 on day 15 (dose: 75.0 mg/kg/injection, schedule: Q04DX004 (sc), vehicle: saline with Tween-80); 0 of 6 on day 15 (dose: 150.0 mg/kg/injection, schedule: Q04DX004 (sc), vehicle: saline with Tween-80); 0 of 6 on day 15 under setting [2]; 0 of 6 on day 15 under setting [3].

Turning to `Cc1cc(SCC(=O)c2ccc(Br)cc2)cc(C)[o+]1`, the survivor count runs as follows: under setting [4], 1 of 3 on day 11; (dose: 800.0 mg/kg/injection, schedule: Q01DX010 (sc), vehicle: saline) 1 of 3 on day 11.

As to `CSc1cc(C)[o+]c(C)c1`, where the note is “dose: 400.0 mg/kg/injection, schedule: Q04DX004 (sc), vehicle: Klucel (hydroxypropylcellulose) (HPC)”, the survivor count is recorded as 0 of 6 on day 15.

Regarding `CCOC(=O)C(CC(C)C)NC(=O)C(N)Cc1ccc(N(CCCl)CCCl)cc1` (stereo not drawn), the T/C (dose: 7.5 mg/kg/injection, schedule: Q04DX004 (sc), vehicle: water, evaluated on day 15) is 134 % of control. Also, the survivor count (dose: 60.0 mg/kg/injection, schedule: Q04DX004 (sc), vehicle: water) is on record as 0 of 6 on day 15.

On to `CCOC(=O)c1c[nH]c2oc(/C=N/N3CC(CN4CCOCC4)OC3=O)cc2c1=O` (stereo not drawn), for which the survivor count under setting [4] was 0 of 3 on day 11.

Take `CS(=O)(=O)c1ncc(Br)cn1`: the survivor count under setting [3] is listed as 0 of 6 on day 15.

Take `Brc1ccc(C[N+]23CN4CN(CN(C4)C2)C3)cc1`: the survivor count under setting [3] is listed as 2 of 6 on day 15 and the survivor count (dose: 1200.0 mg/kg/injection, schedule: Q04DX004 (sc), vehicle: saline with Tween-80) is reported as 0 of 6 on day 15.

For `C[C@H](CCC[C@H](C)OS(=O)(=O)c1ccccc1)OS(=O)(=O)c1ccccc1`, the survivor count under setting [2] is recorded as 3 of 6 on day 15 and the survivor count under setting [3] is on record as 0 of 6 on day 15.

For `S=C(Nc1ccc(Cl)c(Cl)c1)N1c2ccccc2-n2cccc2C1c1cccnc1` (stereo not drawn), the T/C (dose: 1600.0 mg/kg/injection, schedule: Q04DX004 (sc), vehicle: Klucel (hydroxypropylcellulose) (HPC), evaluated on day 15) was 147 % of control.

Values taken from PubChem BioAssay AID206 (DTP/NCI, 2004).
